Whole data set: some 33,000 sequences, median “E-score (-0.5 to 0.5)” near -0.0014, cut for the highest 2% near 0.25. This is one part of the list.
biological target: T1, Cad1 (UniProt P24813); assay: PBM E-score (8-mer binding enrichment) (E-score (-0.5 to 0.5)); higher = stronger / more preferred TF binding; details: protein concentration: 100 nM; construct: GST-full length
T1 sequence: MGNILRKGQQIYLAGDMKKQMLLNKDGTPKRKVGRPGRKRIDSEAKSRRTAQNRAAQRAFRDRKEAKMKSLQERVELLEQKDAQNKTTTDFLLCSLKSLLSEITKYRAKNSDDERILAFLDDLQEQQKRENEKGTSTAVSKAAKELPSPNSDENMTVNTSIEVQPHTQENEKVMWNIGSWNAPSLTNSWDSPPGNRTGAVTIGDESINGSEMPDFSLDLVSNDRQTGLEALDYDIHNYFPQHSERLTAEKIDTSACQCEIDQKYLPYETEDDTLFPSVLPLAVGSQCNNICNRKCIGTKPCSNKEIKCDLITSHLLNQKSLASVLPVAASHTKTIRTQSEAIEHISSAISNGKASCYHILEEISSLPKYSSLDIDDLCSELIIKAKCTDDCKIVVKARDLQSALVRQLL
Summary of the method: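 Each ungapped eight-base word and its reverse complement, pooled, received an E-score from the Universal PBM Analysis Suite. Underlying scans, normalised with masliner, recorded fluorescent anti-GST bound to GST-tagged yeast transcription factors. These were applied at about 100-200 nM to universal all-10-mer Agilent arrays double-stranded by primer extension.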

Compared with AAACTTCC, AGGAAAAC is higher in “PBM E-score” value: -0.0776 for the first, 0.0473 for the second.

First: CTCACTGC
Second: ATGGCAGC
The “PBM E-score” value of the first is higher: -0.0454 for the first, -0.0816 for the second.

Going from CATGTAGG to ATGGATAA, the “PBM E-score” value rises from -0.00754 to 0.158.

First: AGGGAATC
Second: ATAACGAT
The “PBM E-score” value of the first is higher: 0.0468 for the first, -0.0788 for the second.

Compared with GACTATTA, TTTAAAAA is higher in “PBM E-score” value: 0.011 for the first, 0.0229 for the second.

Going from AAATACTG to ACTGCGCG, the “PBM E-score” value falls from 0.114 to 0.0621.

Compared with AGGGAAGA, AGCCGTCG is higher in “PBM E-score” value: -0.15 for the first, 0.219 for the second.

First: CATACGGG
Second: CAAGTATA
The “PBM E-score” value of the first is higher: -0.155 for the first, -0.208 for the second.

Compared with CACGGAGG, AGAGCCGA is higher in “PBM E-score” value: -0.131 for the first, -0.0145 for the second.

Compared with AGCTTTCC, ATCCGAAC is higher in “PBM E-score” value: -0.168 for the first, -0.0852 for the second.

Going from CTAGTACA to GGCTATTA, the “PBM E-score” value rises from 0.0848 to 0.175.

First: AGGTGAGA
Second: CGTACCAA
The “PBM E-score” value of the first is lower: 0.0223 for the first, 0.256 for the second.

First: CTCTGTGA
Second: AAACAGCG
The “PBM E-score” value of the first is lower: 0.123 for the first, 0.182 for the second.

Going from GTGGACGA to ACCACGAA, the “PBM E-score” value falls from 0.0929 to -0.099.

Going from ACGTGATG to ATTGAGCA, the “PBM E-score” value falls from 0.0396 to -0.0157.

Going from AAGCTGTA to GTACAAGA, the “PBM E-score” value falls from 0.00646 to -0.0727.

First: AGCTGTTA
Second: AGAACCCT
The “PBM E-score” value of the first is higher: 0.167 for the first, -0.217 for the second.

First: CTCCTAGA
Second: CAAATAGA
The “PBM E-score” value of the first is lower: -0.115 for the first, 0.0788 for the second.

Going from AAAATGAC to ACCCTCGA, the “PBM E-score” value falls from 0.132 to -0.137.

Going from CGGAGGGC to CTTCAATC, the “PBM E-score” value rises from -0.259 to -0.066.

First: ACATTAAT
Second: TCCGACGA
The “PBM E-score” value of the first is higher: 0.182 for the first, 0.0646 for the second.

Compared with CATTGCAC, CAATTCCC is higher in “PBM E-score” value: 0.109 for the first, 0.113 for the second.

Going from TGCGTCAA to AACCTAGC, the “PBM E-score” value falls from -0.039 to -0.07.

First: AGAGAGAG
Second: CCGTTGGA
The “PBM E-score” value of the first is lower: -0.214 for the first, -0.182 for the second.

First: GATTGTCA
Second: ATAACCCA
The “PBM E-score” value of the first is higher: 0.117 for the first, 0.0872 for the second.

Going from CAGACTAG to CCATCGAA, the “PBM E-score” value rises from 0.0266 to 0.0932.

First: CACCAGTG
Second: ACGGCTGC
The “PBM E-score” value of the first is lower: -0.0993 for the first, -0.0784 for the second.

First: CTCAGGAG
Second: ATAATCGA
The “PBM E-score” value of the first is lower: -0.279 for the first, 0.146 for the second.

Going from CAGTTGGG to AGAGTGGG, the “PBM E-score” value falls from -0.0373 to -0.233.

Compared with ACTTCCGC, CAGTTCCC is lower in “PBM E-score” value: 0.012 for the first, -0.0464 for the second.

First: CGCTGGAC
Second: AGTTTCAC
The “PBM E-score” value of the first is lower: -0.125 for the first, 0.0282 for the second.

Compared with ACGCATAC, ACCGTCGC is lower in “PBM E-score” value: 0.125 for the first, 0.087 for the second.

First: CTATTGCA
Second: ACCTGTGG
The “PBM E-score” value of the first is higher: 0.0473 for the first, -0.217 for the second.

Compared with ACATGACT, CGCAGTCA is lower in “PBM E-score” value: -0.0936 for the first, -0.122 for the second.

First: TACGTACA
Second: AAGTCAGG
The “PBM E-score” value of the first is lower: 0.0186 for the first, 0.08 for the second.

First: ACTTGCGG
Second: ACCAGCTG
The “PBM E-score” value of the first is lower: -0.0852 for the first, 0.074 for the second.

First: AAGATAGA
Second: CAGGTATA
The “PBM E-score” value of the first is lower: 0.0137 for the first, 0.0535 for the second.

Going from CATATCAA to GGCCCCAA, the “PBM E-score” value falls from 0.259 to -0.0912.

Compared with CGCTAGGC, AGCCGAAT is higher in “PBM E-score” value: -0.177 for the first, 0.0754 for the second.

Compared with AACGCTGG, ACGTATTC is higher in “PBM E-score” value: -0.0444 for the first, 0.121 for the second.

Compared with AGGTACGC, CCTTATCG is higher in “PBM E-score” value: -0.0312 for the first, 0.0678 for the second.

Going from GCTTCGCC to CTTTTGCA, the “PBM E-score” value rises from -0.3 to 0.112.

First: CACCCAAA
Second: ACCAATAA
The “PBM E-score” value of the first is higher: 0.0573 for the first, -0.00211 for the second.

Going from CTGCGTAA to TCCAGGAA, the “PBM E-score” value falls from 0.0735 to 0.00079.

Compared with CCATAGGA, AAATTCAG is higher in “PBM E-score” value: 0.00218 for the first, 0.21 for the second.

Compared with GTGCAAAA, GAACCACC is lower in “PBM E-score” value: 0.0709 for the first, -0.00416 for the second.

Going from AGTCAGCG to ATCCAGAG, the “PBM E-score” value falls from 0.216 to 0.0179.

Compared with GTCGGAGA, ACTGCTGC is lower in “PBM E-score” value: -0.0335 for the first, -0.0542 for the second.

First: TCCCCTAA
Second: TCGCAAGA
The “PBM E-score” value of the first is higher: -0.13 for the first, -0.181 for the second.

Going from CTTGACGC to AACGTCGG, the “PBM E-score” value rises from -0.0616 to 0.0485.

Compared with ATAGCTTA, CATGATGC is lower in “PBM E-score” value: 0.0713 for the first, 0.0704 for the second.

Compared with ATGGCTAG, CCGTGCGC is higher in “PBM E-score” value: -0.0638 for the first, 0.0355 for the second.

First: AGGAGACC
Second: CGTGTGCC
The “PBM E-score” value of the first is lower: -0.166 for the first, -0.014 for the second.

Compared with ATGGCGCG, GCAGCCCC is lower in “PBM E-score” value: 0.00983 for the first, -0.0114 for the second.

First: ACCTTACG
Second: GGATATTA
The “PBM E-score” value of the first is higher: 0.193 for the first, 0.163 for the second.

Going from AGATGCAT to CAACTCAG, the “PBM E-score” value falls from 0.0733 to -0.0657.

Compared with AACCGAGA, AGTAATGC is higher in “PBM E-score” value: 0.0525 for the first, 0.055 for the second.

Compared with CTCCCCAC, CGAGGCTC is lower in “PBM E-score” value: -0.104 for the first, -0.138 for the second.

Compared with CACGCGGG, CTAGCGGA is lower in “PBM E-score” value: 0.0476 for the first, -0.068 for the second.

First: GTAAACCA
Second: ATTCGTAG
The “PBM E-score” value of the first is lower: 0.0154 for the first, 0.0619 for the second.

First: ATTTTCAG
Second: GCTAGCCC
The “PBM E-score” value of the first is higher: 0.145 for the first, -0.27 for the second.

Going from TCGACAAA to ATCCTCTA, the “PBM E-score” value falls from 0.195 to -0.25.

Going from GGTAAGAA to CGACCGGA, the “PBM E-score” value falls from -0.129 to -0.215.

Compared with GTGGAAGA, CTAGGTGC is lower in “PBM E-score” value: -0.13 for the first, -0.221 for the second.

Compared with ACAGAGAA, CGGCCGAC is higher in “PBM E-score” value: 0.0176 for the first, 0.0674 for the second.

First: ACTGGCGG
Second: GTAAGTCA
The “PBM E-score” value of the first is higher: 0.0311 for the first, 0.0222 for the second.

First: TATTGAGA
Second: CCTTTAAG
The “PBM E-score” value of the first is higher: 0.186 for the first, -0.104 for the second.

First: ACCGGCGG
Second: ACGCCCGA
The “PBM E-score” value of the first is lower: -0.209 for the first, 0.0212 for the second.

Going from CGAAAAAG to AAAATTTA, the “PBM E-score” value rises from 0.137 to 0.153.

Going from GCATCAAC to CCTGTAAG, the “PBM E-score” value falls from 0.0863 to -0.0737.

Going from ACTTCCCA to CCGGATAG, the “PBM E-score” value rises from 0.0729 to 0.11.

First: AATGCAGC
Second: GGGGCATA
The “PBM E-score” value of the first is higher: -0.0739 for the first, -0.0869 for the second.

Going from ACCAAAAG to AGGCTGCG, the “PBM E-score” value falls from 0.0026 to 0.00153.

First: CCTGGGCC
Second: TAATTTCA
The “PBM E-score” value of the first is lower: -0.213 for the first, 0.214 for the second.

First: ACCGAGTG
Second: TCATAAGA
The “PBM E-score” value of the first is lower: -0.161 for the first, 0.0067 for the second.

First: CGCGGTAC
Second: TACATCCA
The “PBM E-score” value of the first is higher: 0.109 for the first, 0.0733 for the second.

Going from AGTATTCA to TCATCCCA, the “PBM E-score” value falls from -0.0483 to -0.186.

Going from GACTCTAA to CCAGTAAA, the “PBM E-score” value rises from -0.118 to -0.0575.

Going from AATTTGGA to CAAAGTAA, the “PBM E-score” value falls from 0.0914 to -0.00082.

Compared with ACCCTTCG, ACTTCAAA is higher in “PBM E-score” value: -0.135 for the first, -0.0429 for the second.

Compared with CCATCCGG, CGATATAA is higher in “PBM E-score” value: -0.22 for the first, 0.113 for the second.

Compared with AGAATTGG, CCGGAAAA is higher in “PBM E-score” value: -0.0492 for the first, 0.215 for the second.

Compared with ACCAATGC, GTAGGCAC is lower in “PBM E-score” value: 0.116 for the first, -0.143 for the second.

Going from CTACACAG to ACTTTCGG, the “PBM E-score” value falls from -0.0206 to -0.0839.

Going from AACGATTC to CAAGTCGG, the “PBM E-score” value falls from 0.12 to 0.0513.

Going from CCGTAACA to CGGCTGGC, the “PBM E-score” value falls from -0.00304 to -0.141.

Reference: the supplement of paper PMC3334620
